Assay results published in article PMC3554609.
Results are given in words; binding and its absence hold for the method and conditions named. In cells and extracts the contact can be indirect. Some binding calls cover weakened binding; strength is not graded here.

Protein sequences, listed by entry. Tags and fused reporters are not part of them.
UniProt Q3UP24: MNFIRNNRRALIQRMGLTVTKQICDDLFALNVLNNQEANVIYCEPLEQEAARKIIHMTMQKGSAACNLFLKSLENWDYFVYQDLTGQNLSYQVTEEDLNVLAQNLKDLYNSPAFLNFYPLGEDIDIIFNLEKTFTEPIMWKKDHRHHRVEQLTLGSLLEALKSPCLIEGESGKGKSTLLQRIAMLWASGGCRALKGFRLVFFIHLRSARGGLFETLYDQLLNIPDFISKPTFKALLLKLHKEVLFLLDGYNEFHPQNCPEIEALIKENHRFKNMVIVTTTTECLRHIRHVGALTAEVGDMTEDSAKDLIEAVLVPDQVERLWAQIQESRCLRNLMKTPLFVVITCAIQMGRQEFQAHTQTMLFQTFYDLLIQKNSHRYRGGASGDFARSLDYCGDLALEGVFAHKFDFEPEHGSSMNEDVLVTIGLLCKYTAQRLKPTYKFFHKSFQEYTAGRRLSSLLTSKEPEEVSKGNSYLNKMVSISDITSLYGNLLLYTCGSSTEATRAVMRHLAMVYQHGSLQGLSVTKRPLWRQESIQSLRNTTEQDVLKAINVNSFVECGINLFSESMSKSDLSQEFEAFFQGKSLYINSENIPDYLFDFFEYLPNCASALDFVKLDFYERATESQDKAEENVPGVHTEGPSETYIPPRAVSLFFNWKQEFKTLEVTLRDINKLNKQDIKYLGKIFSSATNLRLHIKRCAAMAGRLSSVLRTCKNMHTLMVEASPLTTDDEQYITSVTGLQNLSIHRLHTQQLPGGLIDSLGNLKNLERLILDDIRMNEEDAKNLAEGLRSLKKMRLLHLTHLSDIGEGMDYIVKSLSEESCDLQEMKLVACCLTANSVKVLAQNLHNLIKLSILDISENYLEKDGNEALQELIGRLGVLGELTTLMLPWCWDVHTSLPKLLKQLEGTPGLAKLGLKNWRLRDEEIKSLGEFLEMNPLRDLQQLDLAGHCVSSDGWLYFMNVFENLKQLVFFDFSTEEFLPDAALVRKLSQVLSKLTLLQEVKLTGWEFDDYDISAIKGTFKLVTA
UniProt Q9QUK4: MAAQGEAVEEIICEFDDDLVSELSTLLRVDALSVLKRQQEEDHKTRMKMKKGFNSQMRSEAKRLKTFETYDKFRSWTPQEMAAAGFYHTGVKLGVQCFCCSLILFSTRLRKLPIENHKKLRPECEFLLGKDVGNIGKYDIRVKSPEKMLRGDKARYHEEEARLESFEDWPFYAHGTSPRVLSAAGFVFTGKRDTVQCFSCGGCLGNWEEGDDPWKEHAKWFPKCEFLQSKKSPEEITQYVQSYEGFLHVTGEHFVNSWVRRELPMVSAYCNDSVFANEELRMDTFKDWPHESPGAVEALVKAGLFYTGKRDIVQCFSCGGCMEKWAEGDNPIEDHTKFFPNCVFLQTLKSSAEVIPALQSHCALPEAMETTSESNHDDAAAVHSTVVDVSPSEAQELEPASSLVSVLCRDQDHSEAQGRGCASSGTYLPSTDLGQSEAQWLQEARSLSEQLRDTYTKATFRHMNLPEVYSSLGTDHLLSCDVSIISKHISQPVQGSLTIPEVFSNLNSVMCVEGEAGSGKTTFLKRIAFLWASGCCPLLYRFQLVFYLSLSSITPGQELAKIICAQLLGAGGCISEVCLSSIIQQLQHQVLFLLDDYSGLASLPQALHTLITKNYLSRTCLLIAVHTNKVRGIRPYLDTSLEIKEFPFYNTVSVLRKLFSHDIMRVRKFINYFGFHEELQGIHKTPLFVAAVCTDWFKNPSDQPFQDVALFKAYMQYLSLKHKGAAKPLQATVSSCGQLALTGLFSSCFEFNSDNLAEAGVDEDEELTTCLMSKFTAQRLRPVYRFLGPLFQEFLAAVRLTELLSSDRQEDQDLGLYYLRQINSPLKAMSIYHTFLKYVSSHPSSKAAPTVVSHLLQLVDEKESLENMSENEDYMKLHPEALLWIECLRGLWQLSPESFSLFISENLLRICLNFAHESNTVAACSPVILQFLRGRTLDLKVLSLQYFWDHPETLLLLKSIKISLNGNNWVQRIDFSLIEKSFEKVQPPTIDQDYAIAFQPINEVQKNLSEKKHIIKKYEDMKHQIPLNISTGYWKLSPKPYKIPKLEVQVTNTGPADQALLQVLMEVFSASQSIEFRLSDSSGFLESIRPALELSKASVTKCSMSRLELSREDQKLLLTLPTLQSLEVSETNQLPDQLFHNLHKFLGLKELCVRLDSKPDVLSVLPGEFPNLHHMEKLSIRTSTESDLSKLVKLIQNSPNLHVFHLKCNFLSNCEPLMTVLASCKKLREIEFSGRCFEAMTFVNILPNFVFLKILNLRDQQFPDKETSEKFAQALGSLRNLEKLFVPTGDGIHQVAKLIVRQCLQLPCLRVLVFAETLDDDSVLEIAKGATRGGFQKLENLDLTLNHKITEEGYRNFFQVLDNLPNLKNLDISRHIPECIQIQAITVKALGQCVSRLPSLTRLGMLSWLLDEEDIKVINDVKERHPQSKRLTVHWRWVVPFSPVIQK
UniProt Q9R016: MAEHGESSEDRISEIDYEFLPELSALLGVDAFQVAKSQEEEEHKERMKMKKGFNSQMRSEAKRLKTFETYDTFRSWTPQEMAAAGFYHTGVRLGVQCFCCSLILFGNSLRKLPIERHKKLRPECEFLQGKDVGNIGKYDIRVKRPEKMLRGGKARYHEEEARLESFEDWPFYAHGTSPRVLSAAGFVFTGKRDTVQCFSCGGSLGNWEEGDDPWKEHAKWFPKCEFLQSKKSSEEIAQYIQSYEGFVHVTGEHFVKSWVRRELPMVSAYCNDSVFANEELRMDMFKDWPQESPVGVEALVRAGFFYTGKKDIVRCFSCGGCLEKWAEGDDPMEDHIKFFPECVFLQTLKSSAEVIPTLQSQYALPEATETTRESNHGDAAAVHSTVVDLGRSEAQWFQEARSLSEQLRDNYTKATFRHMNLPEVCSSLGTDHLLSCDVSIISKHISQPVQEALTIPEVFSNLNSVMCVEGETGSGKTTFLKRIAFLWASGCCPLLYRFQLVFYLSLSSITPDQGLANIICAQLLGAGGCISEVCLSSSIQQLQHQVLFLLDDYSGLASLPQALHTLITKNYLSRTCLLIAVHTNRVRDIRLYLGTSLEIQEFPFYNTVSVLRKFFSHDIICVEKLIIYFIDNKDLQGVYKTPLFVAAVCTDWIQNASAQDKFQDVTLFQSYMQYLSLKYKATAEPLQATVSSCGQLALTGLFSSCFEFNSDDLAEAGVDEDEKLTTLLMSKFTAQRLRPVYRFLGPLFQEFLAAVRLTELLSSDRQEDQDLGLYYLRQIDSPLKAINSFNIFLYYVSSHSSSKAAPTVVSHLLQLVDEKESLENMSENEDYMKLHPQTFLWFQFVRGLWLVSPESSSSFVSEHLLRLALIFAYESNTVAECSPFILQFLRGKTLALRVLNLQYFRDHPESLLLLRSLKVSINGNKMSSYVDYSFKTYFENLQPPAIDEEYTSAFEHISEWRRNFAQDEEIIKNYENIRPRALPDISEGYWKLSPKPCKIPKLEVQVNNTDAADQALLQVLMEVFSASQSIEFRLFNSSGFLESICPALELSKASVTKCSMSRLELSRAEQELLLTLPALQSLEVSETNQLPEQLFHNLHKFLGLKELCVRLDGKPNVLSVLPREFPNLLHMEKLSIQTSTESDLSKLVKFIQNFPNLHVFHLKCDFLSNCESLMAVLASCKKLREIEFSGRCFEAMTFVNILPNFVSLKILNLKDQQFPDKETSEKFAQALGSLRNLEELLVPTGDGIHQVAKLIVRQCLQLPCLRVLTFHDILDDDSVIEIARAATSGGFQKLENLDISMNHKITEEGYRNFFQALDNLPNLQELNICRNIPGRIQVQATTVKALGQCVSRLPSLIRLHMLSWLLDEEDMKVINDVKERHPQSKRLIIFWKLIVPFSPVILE
UniProt P41785: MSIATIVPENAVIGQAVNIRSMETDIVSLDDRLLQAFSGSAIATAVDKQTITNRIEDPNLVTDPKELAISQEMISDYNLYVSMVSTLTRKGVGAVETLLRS

Target: FLAG-NLRC4 (UniProt Q3UP24)
Assay: co-IP

Substance	binding
HA-NAIP2 (from UniProt Q9QUK4 1-1447)	binds
HA-NAIP5 (from UniProt Q9R016 1-1403)	binds
Myc-PrgJ (from UniProt P41785 1-101)	binds
